Source: ChEMBL document CHEMBL3988442, “University of Dundee, Small-Polar-MMV Screening Library” (2021).

Protein sequences, listed by entry. Tags and fused reporters are not part of them.
UniProt E9BF75, entry or part of it: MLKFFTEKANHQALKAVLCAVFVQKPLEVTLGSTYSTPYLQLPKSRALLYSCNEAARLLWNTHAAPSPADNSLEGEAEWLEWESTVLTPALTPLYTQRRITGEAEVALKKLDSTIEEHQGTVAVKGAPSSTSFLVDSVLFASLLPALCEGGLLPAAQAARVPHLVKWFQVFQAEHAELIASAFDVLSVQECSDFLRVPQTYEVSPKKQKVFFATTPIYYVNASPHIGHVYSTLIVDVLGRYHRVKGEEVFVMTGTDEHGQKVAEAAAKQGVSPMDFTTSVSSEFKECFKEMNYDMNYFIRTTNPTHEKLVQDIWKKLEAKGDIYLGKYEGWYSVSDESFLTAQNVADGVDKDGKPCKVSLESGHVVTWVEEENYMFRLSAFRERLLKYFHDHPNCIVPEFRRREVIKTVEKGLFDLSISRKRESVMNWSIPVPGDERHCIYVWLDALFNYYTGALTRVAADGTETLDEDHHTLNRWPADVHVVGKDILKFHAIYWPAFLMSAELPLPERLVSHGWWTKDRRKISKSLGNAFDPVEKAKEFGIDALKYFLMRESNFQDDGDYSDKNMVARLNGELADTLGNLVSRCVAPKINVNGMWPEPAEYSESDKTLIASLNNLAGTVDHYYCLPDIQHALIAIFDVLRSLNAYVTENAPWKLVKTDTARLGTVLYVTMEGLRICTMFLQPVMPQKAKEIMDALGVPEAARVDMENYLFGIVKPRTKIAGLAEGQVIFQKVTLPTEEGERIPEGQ

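Primary screen of methionyl-tRNA synthetase; the read-out is not stated. Target: Methionyl-tRNA synthetase (putative), Leishmania donovani (UniProt E9BF75). The test concentration is not given. Values are per cent inhibition. Of about 68,000 compounds tested this way, about 24 (0.035%) reached 50% or more in at least one test.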

All values are in %.
How 0% and 100% were set is not recorded. Most values in the screen are low, and negative values occur.
Compounds were drawn at random from those tested, without regard to their results.

| Compound | inhibition |
|---|---|
| `Cn1cc(CN2C[C@@H]3COC[C@]3(CNC(=O)c3ccsc3)C2)cn1` | 13.3% |
| `CS(=O)(=O)c1cc(Cl)cnc1C1CCCN(C(=O)C2CCOCC2)C1` (centres undefined) | 5.607% |
| `Cn1cc(CN2CCCC23CCN(C(=O)c2cccs2)CC3)cn1` | 0.6536% |
| `CCCc1noc(C2CCN(C(=O)CCn3nc(C)cc3C)CC2)n1` | -8.794% |
| `Cn1ccnc1CN1C[C@@H](F)[C@@H](OCc2nc3cnccc3[nH]2)C1` | 1.504% |
| `CCCN1CCC2(Cc3ccccc3NC2=O)C1` (centres undefined) | 11.68% |
| `CCc1noc(C(C)N2CCN(Cc3noc(C4CC4)n3)CC2)n1` (centres undefined) | 16.03% |
| `CN1CCCN(C(=O)c2ccnn2-c2ccc3ccccn23)CC1` | 3.618% |
| `CCOC1CCCN(C(=O)c2cnc3c(cnn3C3CCCC3)c2)C1` (centres undefined) | -0.4695% |
| `CS(=O)(=O)Cc1nc(CN2CCC(C(F)(F)F)CC2)cs1` | 8.974% |
| `CC1CCN(C(=O)c2cn(-c3cc(N4CCSCC4)ncn3)cn2)CC1` | 10.14% |
| `C[C@H](NC(=O)OC(C)(C)C)c1nnc(S(=O)(=O)Cc2cccc(F)c2)o1` | 20.87% |
| `Cc1cc(NC(=O)C(C)N2CCN(c3nc(C)cs3)CC2)on1` (centres undefined) | 5.744% |
| `COc1nc2c(cc1C(=O)N1C[C@@H](N)C[C@H]1C(=O)NC(C)C)CCC2` | 2.151% |
| `CCc1nc(CC(=O)NC(C#N)CC(C)C)cs1` (centres undefined) | 8.901% |
| `CN1CC2(CCN(C(=O)c3ccc(-n4cnnc4)cc3Cl)CC2)OC1=O` | 3.75% |
| `CC(C)(C)c1nc(CN2CCC(N3CCCCC3)CC2)no1` | 9.924% |
| `O=C(NCc1ccc2nonc2c1)C1CCN(C(=O)C2CCC2)CC1` | 16.72% |
| `CN(C)c1cncc(C2CCCN(c3cnccn3)C2)n1` (centres undefined) | 20.56% |
| `O=C(c1cnc(-c2noc3cc(N4CCCC4)ccc23)s1)N1CCCC1` | 18.84% |
| `CC(C)(C)c1cc(NC(=O)NCCc2nnc3n2CCC3)c(C#N)s1` | 10.47% |
| `COC[C@]1(O)CCN(C(=O)c2ccc(CN(C)C)o2)CC1(C)C` | 5.108% |
| `CC(Nc1ccc(C#N)cc1F)c1cccc(S(N)(=O)=O)c1` (centres undefined) | 6.366% |
| `O=C(Nc1ccccc1)[C@H]1C[C@@H]2CN(S(=O)(=O)c3ccccc3)C[C@H]1O2` | 12.97% |
| `O=C(Cn1nnc(-c2ccc(F)cc2)n1)N1CCOCC(O)C1` (centres undefined) | 12.32% |
| `CC(C)c1ncc2c(n1)CN(Cc1nc(-c3ccoc3)no1)CC2` | 17.46% |
| `Cc1nnc2n1CCN(Cc1ncc(-c3ccc(F)cc3)o1)C2` | 11.48% |
| `Cc1cnc(N2C(=O)CSC2c2ccccc2)s1` (centres undefined) | 17.37% |
| `Cc1ccoc1C(=O)N1CCCC(c2cc(C(F)(F)F)[nH]n2)C1` (centres undefined) | 15.64% |
| `O=C(NCC1CC1)[C@H]1C[C@@H]2CN(C(=O)NCc3ccccc3)C[C@H]1O2` | 7.843% |
| `Cc1ccccc1SCC(=O)NS(=O)(=O)c1ccc2c(c1)OCCO2` | 8.197% |
| `COc1ccccc1CC(=O)NC(CC(=O)O)c1ccc(F)cc1` (centres undefined) | 9.893% |
| `CO[C@@H]1CCN(Cc2cnn(C)c2)[C@@H]2CN(Cc3ccco3)C[C@@H]21` | 6.224% |
| `Cc1nc(-c2ccsc2)ccc1C(=O)NCCC1CCCO1` (centres undefined) | 8.163% |
| `CCc1nc2n(n1)CC(NCc1noc(-c3ccc(C)cc3)n1)CC2` (centres undefined) | 17.04% |
| `CCn1nccc1CNC(=O)C(C)n1cc2c(n1)c(C)nn2C` (centres undefined) | 14.52% |
| `N#Cc1cccc(S(=O)(=O)N2CCCCC2CCN2CCCC2=O)c1` (centres undefined) | 9.5% |
| `CCc1cc(NCC(O)CN2CCCCC2)n2ncnc2n1` (centres undefined) | 19.72% |
| `O=C(N1CCN(c2ccccc2O)CC1)C1(O)Cc2ccccc2C1` | 22.56% |
| `O=C(c1cnc(O)cn1)N(Cc1ccsc1)CC1CCCO1` (centres undefined) | 10.66% |
| `Cn1cc(C(=O)N2CCCC(n3cncn3)C2)ccc1=O` (centres undefined) | 9.966% |
| `CC(C)(C)c1cc(=O)[nH]c(-c2ccccc2CN2CCC[C@@H](O)C2)n1` | 14.99% |
| `O=S(=O)(c1c(N2CCCCC2)ccc2nonc12)N1CCCCC1` | 4.91% |
| `CCNC(=O)C1CCN(Cc2ccc(C(=O)Nc3cnns3)cc2)C1` (centres undefined) | 15.87% |
| `Cc1cc(C)c(CNC(=O)N2CCC(N3CCCC3)CC2)c(=O)[nH]1` | 17.73% |
| `COc1ccc(Cc2nnc3n2N=C(C(C)(C)C)CS3)cc1` | 7.521% |
| `Cn1c(=O)[nH]c(=O)n2c(CC(=O)Nc3ccc(Cl)c(Cl)c3)cnc12` | 2.857% |
| `C[C@@H]1CN(C2CCOC2)C[C@]12CCN(Cc1cccnc1)C2=O` (some centres undefined) | 16.81% |
| `CN(CCC1CCOCC1)[C@@H]1c2ccccc2C2(CCNCC2)[C@H]1O` | 6.789% |
| `CC(=O)N1CCN(Cc2c(C)ccc3ccccc23)CC(O)C1` (centres undefined) | 10.31% |
| `CCS(=O)(=O)N1CCc2onc(COc3ccccn3)c2C1` | 18.48% |
| `CC(C)(C)c1cc(C(=O)N2CCC(c3cnccn3)CC2)[nH]n1` | 1.869% |
| `O=c1cc(Cn2ccnc2)nc2n1CCCN(Cc1ccco1)C2` | 11.78% |
| `CC(C)C(NCc1ccc(Cn2cncn2)cc1)c1ccccc1` (centres undefined) | 18.38% |
| `O=C(CCC1CCCO1)NCCCC(=O)Nc1ccc(Cl)cc1` (centres undefined) | 13.44% |
| `O=C(c1cccs1)N1CCc2c(nc(N3CCCC3)[nH]c2=O)C1` | 7.812% |
| `COc1ccc(-c2nnc(SC(C)C(=O)NCC(C)C)[nH]2)c(OC)c1` (centres undefined) | 21.13% |
| `CCc1noc(C2CCCCN2C(=O)c2ccc(C)o2)n1` (centres undefined) | 3.769% |
| `Cc1ccc(-n2nnc(C(=O)NCC(F)(F)F)c2C2CC2)cc1` | 12.57% |
| `Cn1cccc1C(O)CNS(=O)(=O)Cc1ccccc1` (centres undefined) | 5.755% |
| `CCN1CC(C(=O)NCCc2csc(-c3ccncc3)n2)CC1=O` (centres undefined) | 14.44% |
| `CN[C@@H]1CCC[C@@H](Oc2ccccc2Oc2ccc(C)cc2)[C@@H]1O` | 17.3% |
| `Cc1ccc(C2(CN(C)Cc3sccc3C)CCNCC2)nc1` | 5.625% |
| `Oc1cc(C2CCCCN2C2CCCC2)nc(-c2cccnc2)n1` (centres undefined) | 12.23% |
| `O=C(N1CCCC1)N1Cc2nccn2CC(Cn2ncccc2=O)C1` (centres undefined) | 10.14% |
| `CCC(O)CN1CCN(C(=O)c2cnn(-c3ccccc3F)c2)CC1` (centres undefined) | 5.305% |
| `CCOc1ccccc1C(=O)N1CCCC(O)(CN(C)C)C1` (centres undefined) | 6.211% |
| `Cc1ccc(-n2ccnc2)c(C(=O)NCCOCC2CCCO2)c1` (centres undefined) | 21.33% |
| `CC(C)CCN(C(=O)c1ccc(-n2ncc(C#N)c2N)cc1)C1CC1` | 20.22% |
| `COc1cccc(F)c1CN1CCC(c2nccc(C)n2)C1` (centres undefined) | 19.06% |
| `CCc1ccc(CN(C)C(=O)c2ccc(CSc3nnc[nH]3)o2)nc1` | 11.06% |
| `CC1=NOC(C(=O)N(C)CCCn2nc(C)cc2C)C1` (centres undefined) | 8.383% |
| `COc1ccc(-c2cnc(N(C)C)nc2C2CN(C(C)=O)CCO2)cc1` (centres undefined) | 7.742% |
| `CN(c1cccnc1N1CCCC1)S(=O)(=O)c1cnn(C)c1` | 11.08% |
| `CN1CCN(C2CCN(CC(O)c3ccccc3F)CC2)C1=O` (centres undefined) | 5.789% |
| `CSCc1noc(CN2CCCCC2CCc2ccc(O)cc2)n1` (centres undefined) | 5.625% |
| `O=C(Cc1ccsc1)N1CCc2ccc(=O)n(CC3CC3)c2CC1` | 17.07% |
| `COCCNC(=O)CCn1ncc2c(Cl)cccc21` | -33.42% |
| `CCN1C[C@H]2C3(CCN(S(C)(=O)=O)CC3)CC[C@@]2(C(=O)N(C)C)C1` | 5.602% |
| `Cc1nc(NC(=O)c2c(-n3cnnn3)sc3c2CCC3)sc1C` | 10.21% |
| `COc1c(Cl)cc(Cl)cc1CN1CCC(C(N)=O)C1` (centres undefined) | 6.636% |
| `O=C(NCCNc1ncccn1)C1CC(=O)N(CC(F)(F)F)C1` (centres undefined) | 16.34% |
| `CCC(OC)C(=O)N1CCC2(CC1)c1nc[nH]c1CCN2S(C)(=O)=O` (centres undefined) | 2.837% |
| `COc1cc(OC)cc(C2CCN(CC(=O)NCC(F)(F)F)C2)c1` (centres undefined) | 12.01% |
| `CCc1ncc2c(n1)CN(Cc1nnc(CC)o1)CC2` | 10.78% |
| `CC(C)Cc1cc(CNC(=O)c2ccccc2C2CCNC2)no1` (centres undefined) | 20.91% |
| `CCS(=O)(=O)c1ncc(CN2CCCC2)n1CCc1ccccc1` | 4.982% |
| `O=C(NCc1cccnc1)C1=NOC2(CCCN(CCO)C2)C1` (centres undefined) | 2.222% |
| `Cc1ccccc1C(NC(=O)CNC(=O)c1ccoc1C)C(C)C` (centres undefined) | 6.183% |
| `CCOCCN1CCC=C(C2c3nc[nH]c3CCN2C(C)=O)C1` (centres undefined) | 11.76% |
| `C1CCC(c2nnc3sc(C4CCCO4)nn23)C1` (centres undefined) | 0.2611% |
| `CN1CCN(CC[C@@H]2CC[C@H](O)[C@@H](C(=O)Nc3ccccc3)O2)CC1` | 4.511% |

8 of the entries, repeated:

For COc1ccc(Cc2nnc3n2N=C(C(C)(C)C)CS3)cc1 the result was 7.521%.
For COCCNC(=O)CCn1ncc2c(Cl)cccc21 the result was -33.42%.
For Cn1cc(C(=O)N2CCCC(n3cncn3)C2)ccc1=O (centres undefined) the result was 9.966%.
For CN1CCN(CC[C@@H]2CC[C@H](O)[C@@H](C(=O)Nc3ccccc3)O2)CC1 the result was 4.511%.
For O=C(NCc1ccc2nonc2c1)C1CCN(C(=O)C2CCC2)CC1 the result was 16.72%.
For CCc1ccc(CN(C)C(=O)c2ccc(CSc3nnc[nH]3)o2)nc1 the result was 11.06%.
For CCN1CC(C(=O)NCCc2csc(-c3ccncc3)n2)CC1=O (centres undefined) the result was 14.44%.
For Cn1cc(CN2C[C@@H]3COC[C@]3(CNC(=O)c3ccsc3)C2)cn1 the result was 13.3%.